{
  "source": "PubChem BioAssay AID540256",
  "about": "(National Center for Advancing Translational Sciences (NCATS), 2011)",
  "note": "Where “and” joins values, the source holds several entries; their conditions need not be identical. Equal values may be shown once. Hit rate of the full screen: of about 300,000 compounds, about 3,700 (1.2%) were called active. This list was built around the results that the source calls inconclusive (neither active nor inactive); the mix of calls is not that of the screen. The call rests on the fitted dose curve; tested in HEK293 cells. A potency beside an inconclusive call is a rough fit, not a confirmed value. On the % scale 0 is the no-effect control and ±100 the full control effect; potency means the concentration at half of the fitted maximal effect.",
  "data": [
    {"assay": "qHTS for Inhibitors of binding or entry into cells for Lassa Virus; further: nearly all actives have a fitted effect of over 50% in size", "details": "Lassa virus pseudotype entry inhibition, cell reporter; activity change, negative = inhibition: at 37.9 µM (top of the series) unless noted", "values": [
      {"compound": "Cc1nc(Cl)c2oc3ccccc3c2n1", "Potency": "inconclusive: 32.6 µM [inhibitor, single point]"},
      {"compound": "O=C(CCN1C(=O)/C(=C/c2cccs2)SC1=S)Nc1ccc(O)cc1", "activity change, negative = inhibition": "inactive: -18% [at 46.1 µM]"},
      {"compound": "CSc1ccc(/C=N/NC(=O)COc2ccc(Br)cc2Cl)cc1", "Potency": "inconclusive: 6.31 µM [inhibitor, partial curve, poor fit]"},
      {"compound": "COc1ccc(/C(C)=N/Nc2nc3ccccc3n3cnnc23)cc1OC", "activity change, negative = inhibition": "inactive: -27.5%"},
      {"compound": "O=C1CCC(=O)N1c1ccccc1-c1ccccc1", "Potency": "inconclusive: 0.708 µM [activator, single point]"},
      {"compound": "CCn1cc(C(=O)NCC2CCCO2)c(=O)c2cc(S(=O)(=O)N3CCCCCC3)ccc21", "note": "(centres undefined)", "Potency": "inconclusive: 1.03 µM [inhibitor, full curve, poor fit]"},
      {"compound": "Cc1cc(C(=O)NNC(=O)c2ccc(C(F)(F)F)cc2)no1", "activity change, negative = inhibition": "inconclusive: 0.599% [activator]"},
      {"compound": "CS(=O)(=O)c1cccc(-c2nnc(NC(=O)c3ccc4c(c3)OCCO4)o2)c1", "activity change, negative = inhibition": "inactive: 7.41% [at 46.1 µM]"},
      {"compound": "O=C(Nc1ccc(/C=C/c2nc3ccccc3o2)cc1)c1cccc(C(F)(F)F)c1", "Potency": "inconclusive: 0.447 µM [activator, partial curve, poor fit]"},
      {"compound": "C=CCc1ccc(OCC(O)CO)c(OC)c1", "note": "(centres undefined)", "activity change, negative = inhibition": "inactive: 22.8%"},
      {"compound": "CN(C)c1ccnc(Oc2ccccc2)c1C#N", "activity change, negative = inhibition": "inactive: 1.18%"},
      {"compound": "O=C1CCC/C1=C/Nc1cccc(F)c1", "activity change, negative = inhibition": "inactive: 6.29%"},
      {"compound": "Cc1ccc(NC(=O)C(Cc2ccccc2)NS(=O)(=O)c2ccc3c(c2)CCC(=O)N3)cc1", "note": "(centres undefined)", "activity change, negative = inhibition": "inactive: -16.8% [at 46.1 µM]"},
      {"compound": "Cc1cc(NC(=O)c2ccc3c(c2)OCO3)no1", "Potency": "inconclusive: 11.2 µM [inhibitor, partial curve, poor fit]"},
      {"compound": "CCCN(CC(=O)Nc1ccccc1C)C(=O)Cc1coc2cc(C)ccc12", "Potency": "inconclusive: 35.5 µM [inhibitor, partial curve, poor fit]"},
      {"compound": "Cc1c(NC(=O)C2(c3ccccc3)CCCC2)c(=O)n(-c2ccccc2)n1C", "Potency": "inconclusive: 18.3 µM [activator, partial curve, poor fit]"},
      {"compound": "N#C/C(=C\\c1ccc(OC(=O)c2ccccn2)cc1)C(N)=O", "activity change, negative = inhibition": "inactive: 8.77%"},
      {"compound": "O=C(NCC(F)(F)F)Nc1nnc(C(F)(F)F)s1", "Potency": "inconclusive: 7.94 µM [inhibitor, partial curve, poor fit]"},
      {"compound": "C=CCNC(=O)c1ccc([N+](=O)[O-])c(Cl)c1", "Potency": "inconclusive: 0.562 µM [activator, full curve, poor fit]"},
      {"compound": "COc1cc(NC(=O)Cn2ccn(-c3cc(C)cc(C)c3)c(=O)c2=O)cc(OC)c1", "activity change, negative = inhibition": "inactive: -0.558% [at 46.1 µM]"},
      {"compound": "Cc1nc(N2CCOCC2)c2c(C)c(C(=O)Nc3ccc(F)cc3Cl)sc2n1", "Potency": "inconclusive: 7.94 µM [activator, partial curve]"},
      {"compound": "CCOC(=O)c1sc(NC(=O)Nc2ccccc2Cl)cc1C", "Potency": "active: 7.94 µM"},
      {"compound": "C=CCN1C(C(=O)c2ccccc2)=C(OC(=O)COc2ccccc2)c2ccccc2S1(=O)=O", "Potency": "inconclusive: 3.55 µM [inhibitor, partial curve, poor fit]"},
      {"compound": "CSCCC(=O)Nc1nc(-c2ccccn2)cs1", "activity change, negative = inhibition": "inactive: -12.6%"},
      {"compound": "Cc1ccc(NC(=O)CN2C(=O)S/C(=C/c3ccc(-c4cc(C(=O)O)ccc4C)o3)C2=O)cc1C", "activity change, negative = inhibition": "inactive: 7.46%"},
      {"compound": "COc1ccc2c(c1)CCc1sc(NC(=O)c3ccc(Br)cc3)nc1-2", "activity change, negative = inhibition": "inactive: -9.89% [at 46.1 µM]"},
      {"compound": "O=C(NCc1ccccc1)N1CCN(c2ccccc2F)CC1", "Potency": "inconclusive: 3.55 µM [activator, single point]"},
      {"compound": "Cc1onc(-c2ccc(Cl)cc2)c1-c1ccnn1S(=O)(=O)c1cccc(C(F)(F)F)c1", "activity change, negative = inhibition": "inactive: -26.8%"},
      {"compound": "Cc1ccc(COc2ccc(/C=N/O)cc2)cc1", "Potency": "inconclusive: 35.5 µM [inhibitor, single point]"},
      {"compound": "CC(C)CN1C(=O)C(=O)N(CC(=O)c2ccc[nH]2)C1=O", "activity change, negative = inhibition": "inactive: 2.64%"},
      {"compound": "COc1ccc(NC(=O)C(NC(=O)c2ccc(=O)[nH]c2)c2ccccc2)cc1", "note": "(centres undefined)", "activity change, negative = inhibition": "inactive: 4.21%"},
      {"compound": "CCCN(CCC)CCCNC(=O)Cn1ncc2c3ccccc3n(Cc3ccccc3F)c2c1=O", "Potency": "inconclusive: 22.4 µM [activator, single point]"},
      {"compound": "Cc1cc(C(=O)N/N=C/c2cc(Br)c(Br)o2)n[nH]1", "activity change, negative = inhibition": "inactive: 11.5% [at 46.1 µM]"},
      {"compound": "O=[N+]([O-])c1ccc(-n2nnnc2-c2ccccc2)c([N+](=O)[O-])c1", "Potency": "inconclusive: 20.6 µM [inhibitor, partial curve, poor fit]"},
      {"compound": "CCOc1ccc(N(C)S(=O)(=O)c2ccc(-c3ccc(=O)[nH]n3)s2)cc1", "Potency": "inconclusive: 0.562 µM [inhibitor, full curve, poor fit]"},
      {"compound": "CCCCNC(=S)NCC(c1ccccc1)c1c[nH]c2ccccc12", "note": "(centres undefined)", "Potency": "inconclusive: 35.5 µM [inhibitor, single point]"},
      {"compound": "CCN(CC)CCNc1nc2c(c(=O)[nH]c(=O)n2C)n1CC(O)COc1ccc(Cl)cc1Cl", "note": "(centres undefined)", "activity change, negative = inhibition": "inactive: 12.9%"},
      {"compound": "CCOC(=O)c1c(NC(=O)C(NCCN(C)C)c2ccccc2)sc2c1CCCC2", "note": "(centres undefined)", "Potency": "active: 11.2 µM"},
      {"compound": "Oc1ccccc1Nc1ccccn1", "Potency": "inconclusive: 25.1 µM [inhibitor, single point]"},
      {"compound": "CCOC(=O)N1CCN(C(=O)CSCc2ccccc2Cl)CC1", "Potency": "inconclusive: 35.5 µM [inhibitor, single point]"},
      {"compound": "COc1ccc(-c2nc(NC(=O)CSc3nnc(C)s3)ns2)cc1", "Potency": "inconclusive: 6.51 µM [activator, single point]"},
      {"compound": "CCNC(=S)N1CCN(CCN2C(=O)c3cccc4cccc(c34)C2=O)CC1", "Potency": "inconclusive: 1.41 µM [inhibitor, partial curve, poor fit]"},
      {"compound": "CCN1/C(=C/c2sc(-c3ccccc3C)c[n+]2C)Sc2ccccc21", "Potency": "inconclusive: 2 µM [inhibitor, full curve, poor fit]"},
      {"compound": "CCc1ccc(NC(=O)c2cc(C(C)C)on2)cc1", "Potency": "inconclusive: 14.6 µM [inhibitor, single point]"},
      {"compound": "CCOc1nnc(C)c2c(C)n(-c3cccc(OC)c3)nc12", "Potency": "inconclusive: 0.355 µM [inhibitor, full curve, poor fit]"},
      {"compound": "COc1ccc(/C(C)=N/NC(=O)c2ccc(N(C)C)cc2)cc1", "Potency": "inconclusive: 7.94 µM [inhibitor, partial curve, poor fit]"},
      {"compound": "CCCNC(=O)NC(C(=O)OC)C12CC3CC(CC(C3)C1)C2", "note": "(centres undefined)", "Potency": "inconclusive: 35.5 µM [activator, partial curve, poor fit]"},
      {"compound": "COc1ccc2nc(NC(=O)c3cccc(OCc4c(C)noc4C)c3)sc2c1", "Potency": "inconclusive: 1.58 µM [inhibitor, partial curve, poor fit]"},
      {"compound": "C/C(=N\\N1CCN(Cc2ccccc2Cl)CC1)c1ccc(F)cc1", "Potency": "inconclusive: 28.2 µM [activator, partial curve, poor fit]"},
      {"compound": "CCCCn1c(N)c(-c2nc3ccccc3s2)c2c([N+](=O)[O-])nn(C)c(=O)c21", "Potency": "inconclusive: 16.4 µM [inhibitor, partial curve, poor fit]"},
      {"compound": "Cc1noc(/C=C/c2ccco2)c1S(=O)(=O)N1CCC(C(=O)Nc2ccc(Cl)cn2)CC1", "Potency": "inconclusive: 20 µM [inhibitor, single point]"},
      {"compound": "COc1cccc(-n2nnnc2S(C)(=O)=O)c1", "Potency": "active: 8.91 µM"},
      {"compound": "CCn1cc(Br)c(C(=O)Nc2nccs2)n1", "activity change, negative = inhibition": "inactive: 14.8%"},
      {"compound": "CCOC(=O)C1CCCN(S(=O)(=O)c2cc(Br)cc3c2N(C(C)=O)CC3)C1", "note": "(centres undefined)", "Potency": "inactive and inconclusive: 251 nM [inhibitor, full curve, poor fit]"},
      {"compound": "CCOc1ccc(NC(=O)CCN2CCN(c3ccccc3F)CC2)cc1", "Potency": "inconclusive: 1.64 µM [inhibitor, full curve, poor fit]"},
      {"compound": "O=C1C2=C(C(c3ccccc3)=NCCN2)C(c2cccc([N+](=O)[O-])c2)N1c1ccccc1", "note": "(centres undefined)", "Potency": "inconclusive: 31.6 µM [inhibitor, single point]"},
      {"compound": "CCOC(=O)Cn1cnc2scc(-c3ccc(C)c(C)c3)c2c1=O", "Potency": "inconclusive: 35.5 µM [inhibitor, single point]"},
      {"compound": "CCCC(=O)NC(c1ccc(OC)cc1)c1c(O)ccc2ccccc12", "note": "(centres undefined)", "Potency": "inconclusive: 20 µM [inhibitor, partial curve, poor fit]"},
      {"compound": "COC(=O)CSC1=C(C#N)C(c2ccc3c(c2)OCO3)C2=C(CCCC2=O)N1", "note": "(centres undefined)", "activity change, negative = inhibition": "inactive: -4.47%"},
      {"compound": "CCOc1ccc(-c2cc(NC(=O)Nc3ccc(Cl)cc3)c(C(=O)OC)s2)cc1", "Potency": "inconclusive: 11.2 µM [activator, single point]"},
      {"compound": "COc1ccc(C2CC(c3ccccc3OC(C)=O)=NN2C(=O)/C=C/c2ccccc2)cc1", "note": "(centres undefined)", "Potency": "inconclusive: 20.6 µM [inhibitor, partial curve, poor fit]"},
      {"compound": "CN(C)S(=O)(=O)c1ccc(Cl)c(NC(=O)COc2ccccc2[N+](=O)[O-])c1", "Potency": "inconclusive: 6.31 µM [inhibitor, single point]"},
      {"compound": "CC(=O)Nc1c(S(=O)(=O)c2ccccc2)c2nc3ccccc3nc2n1Cc1ccccc1", "activity change, negative = inhibition": "inactive: -25.5%"},
      {"compound": "CN(C)c1ccc2c(c1)OC(N)=C(C#N)C2c1cccc(F)c1", "note": "(centres undefined)", "Potency": "inconclusive: 2.59 µM [inhibitor, full curve, poor fit]"},
      {"compound": "O=C(Nc1cccc2ccccc12)NC1Cc2ccccc2C1", "activity change, negative = inhibition": "inactive: 4.58%"},
      {"compound": "Cc1cc(-c2nnc(CCC(=O)NCC(C)c3ccccc3)o2)no1", "note": "(centres undefined)", "Potency": "inconclusive: 5.62 µM [activator, single point]"},
      {"compound": "CCCCN(Cc1cc2ccccc2[nH]c1=O)C(=O)c1cccc(Cl)c1", "activity change, negative = inhibition": "inactive: -9.74% [at 46.1 µM]"},
      {"compound": "O=C(NCc1cccnc1)c1cc(Sc2cccc(Cl)c2)nc2ccccc12", "Potency": "inconclusive: 20.6 µM [inhibitor, partial curve, poor fit]"},
      {"compound": "COC(=O)c1sc(-c2ccccc2)cc1NC(=O)Nc1ccc(Cl)cc1", "Potency": "inconclusive: 14.1 µM [activator, single point]"}
    ]}
  ]
}
